In article PMC4937415, “Peroxiredoxin 1 interacts with and blocks the redox factor APE1 from activating interleukin-8 expression” (Scientific Reports, 2016):
Results are given in words; binding and its absence hold for the method and conditions named. In cells and extracts the contact can be indirect. These calls come from enrichment with a bait or labelling near it, and not all partners need be listed. For some assays here: A no says only that the protein was not detected with the bait.

Amino acid sequences for entries named in this document (tags omitted). Residues count along the entry.
UniProt P27695: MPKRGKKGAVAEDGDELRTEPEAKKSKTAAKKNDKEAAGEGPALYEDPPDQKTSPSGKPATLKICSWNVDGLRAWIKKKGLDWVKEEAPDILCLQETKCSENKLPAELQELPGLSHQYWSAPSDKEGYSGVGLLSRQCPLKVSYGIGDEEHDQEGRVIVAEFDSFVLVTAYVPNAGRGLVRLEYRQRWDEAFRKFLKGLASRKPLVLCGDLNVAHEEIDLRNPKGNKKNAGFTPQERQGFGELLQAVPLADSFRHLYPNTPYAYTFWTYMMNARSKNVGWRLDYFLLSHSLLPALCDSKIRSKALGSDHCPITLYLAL
UniProt P06748: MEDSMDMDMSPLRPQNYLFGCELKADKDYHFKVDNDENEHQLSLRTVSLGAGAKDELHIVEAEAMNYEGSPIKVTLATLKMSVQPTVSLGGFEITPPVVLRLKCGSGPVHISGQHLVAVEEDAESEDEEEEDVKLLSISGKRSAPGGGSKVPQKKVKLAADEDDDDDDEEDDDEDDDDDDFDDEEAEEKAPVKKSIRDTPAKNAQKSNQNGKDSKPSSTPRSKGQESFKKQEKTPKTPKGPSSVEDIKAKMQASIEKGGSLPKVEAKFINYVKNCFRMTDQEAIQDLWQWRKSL
UniProt P02545, residues 1-646: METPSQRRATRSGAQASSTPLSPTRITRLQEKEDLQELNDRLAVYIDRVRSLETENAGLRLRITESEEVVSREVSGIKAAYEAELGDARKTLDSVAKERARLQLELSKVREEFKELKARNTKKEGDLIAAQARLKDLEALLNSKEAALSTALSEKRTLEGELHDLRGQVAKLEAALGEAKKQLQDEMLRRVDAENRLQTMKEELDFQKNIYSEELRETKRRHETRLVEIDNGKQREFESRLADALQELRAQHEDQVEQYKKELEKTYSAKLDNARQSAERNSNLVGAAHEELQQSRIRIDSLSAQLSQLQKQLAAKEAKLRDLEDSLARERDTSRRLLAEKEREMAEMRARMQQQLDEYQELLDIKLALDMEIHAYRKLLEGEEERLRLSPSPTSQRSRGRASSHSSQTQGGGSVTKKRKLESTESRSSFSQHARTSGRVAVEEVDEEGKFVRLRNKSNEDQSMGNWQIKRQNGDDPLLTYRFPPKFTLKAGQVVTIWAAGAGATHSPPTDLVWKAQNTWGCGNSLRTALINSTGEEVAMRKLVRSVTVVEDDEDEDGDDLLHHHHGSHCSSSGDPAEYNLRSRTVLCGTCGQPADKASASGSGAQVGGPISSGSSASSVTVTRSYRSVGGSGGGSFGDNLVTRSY

Legend:
[1] = biological target: FH-APE1 (N-terminal FLAG-HA tagged APE1) (human) (UniProt P27695); experiment: affinity purification with mass spectrometry; tandem anti-FLAG then anti-HA resins from nuclear extract of HeLaS cells expressing FH-APE1 (untreated or 25 μM H2O2 for 1 h); whole HA eluate to mass spectrometry; hit limit three unique peptides; empty vector pOZ as control
[2] = biological target: FH-APE1 (N-terminal FLAG-HA tagged APE1) (human) (UniProt P27695); experiment: condition: only cells treated with 100 μM H2O2 for 1 h; affinity purification with mass spectrometry; tandem affinity purification of FH-APE1 from nuclear extract of HeLaS cells treated with 100 μM H2O2 for 1 h
[3] = biological target: FH-APE1 (N-terminal FLAG-HA tagged APE1) (human) (UniProt P27695); experiment: affinity purification with mass spectrometry; tandem affinity purification of FH-APE1 from nuclear extract of HeLaS cells treated with 100 μM H2O2 for 1 h
[4] = biological target: FH-APE1 (N-terminal FLAG-HA tagged APE1) (human) (UniProt P27695); experiment: affinity purification with mass spectrometry; tandem anti-FLAG then anti-HA resins from the cytosolic fraction of HeLaS cells expressing FH-APE1 (untreated or 25 μM H2O2 for 1 h); whole HA eluate to mass spectrometry

For NPM1 (from UniProt P06748 1-294), the binding [1] was “binds” and the binding [2] was “no binding”.

With LMNA (from UniProt P02545 1-646) the binding [1] was “binds” and the binding [3] was “binds”.

B1: Peroxiredoxin 1 (PRDX1) (natural protein, human (endogenous in HeLaS and HeLa), UniProt Q06830 1-199, looked up)
chain: MSSGNAKIGHPAPNFKATAVMPDGQFKDISLSDYKGKYVVFFFYPLDFTFVCPTEIIAFSDRAEEFKKLNCQVIGASVDSHFCHLAWVNTPKKQGGLGPMNIPLVSDPKRTIAQDYGVLKADEGISFRGLFIIDDKGILRQITVNDLPVGRSVDETLRLVQAFQFTDKHGEVCPAGWKPGSDTIKPDVQKSKEYFSKQK
notes: endogenous PRDX1 of HeLaS and HeLa cells; monomer 22 kDa, dimeric form 44 kDa on blots; source: endogenous, HeLaS nuclear, cytosolic and total extracts; endogenous, HeLa nuclear extract
B1 was tested, and the binding [1] was “binds”, the binding [2] was “no binding” and the binding [4] was “binds”.

B2: PDIA6 (protein, UniProt Q15084 20-440)
chain: LYSSSDDVIELTPSNFNREVIQSDSLWLVEFYAPWCGHCQRLTPEWKKAATALKDVVKVGAVDADKHHSLGGQYGVQGFPTIKIFGSNKNRPEDYQGGRTGEAIVDAALSALRQLVKDRLGGRSGGYSSGKQGRSDSSSKKDVIELTDDSFDKNVLDSEDVWMVEFYAPWCGHCKNLEPEWAAAASEVKEQTKGKVKLAAVDATVNQVLASRYGIRGFPTIKIFQKGESPVDYDGGRTRSDIVSRALDLFSDNAPPPELLEIINEDIAKRTCEEHQLCVVAVLPHILDTGAAGRNSYLEVLLKLADKYKKKMWGWLWTEAGAQSELETALGIGGFGYPAMAAINARKMKFALLKGSFSEQGINEFLRELSFGRGSTAPVGGGAFPTIVEREPWDGRDGELPVEDDIDLSDVELDDLGKDEL
For B2, the binding [4] was “binds”.

B3: PRDX2 (protein, UniProt P32119 1-198)
chain: MASGNARIGKPAPDFKATAVVDGAFKEVKLSDYKGKYVVLFFYPLDFTFVCPTEIIAFSNRAEDFRKLGCEVLGVSVDSQFTHLAWINTPRKEGGLGPLNIPLLADVTRRLSEDYGVLKTDEGIAYRGLFIIDGKGVLRQITVNDLPVGRSVDEALRLVQAFQYTDEHGEVCPAGWKPGSDTIKPNVDDSKEYFSKHN
For B3, the binding [4] was “binds”.

B4: PRDX3 (protein, UniProt P30048 62-256)
chain: APAVTQHAPYFKGTAVVNGEFKDLSLDDFKGKYLVLFFYPLDFTFVCPTEIVAFSDKANEFHDVNCEVVAVSVDSHFSHLAWINTPRKNGGLGHMNIALLSDLTKQISRDYGVLLEGSGLALRGLFIIDPNGVIKHLSVNDLPVGRSVEETLRLVKAFQYVETHGEVCPANWTPDSPTIKPSPAASKEYFQKVNQ
In the case of B4, the binding [4] is reported as “binds”.

B5: PRDX6 (protein, UniProt P30041 1-224)
chain: MPGGLLLGDVAPNFEANTTVGRIRFHDFLGDSWGILFSHPRDFTPVCTTELGRAAKLAPEFAKRNVKLIALSIDSVEDHLAWSKDINAYNCEEPTEKLPFPIIDDRNRELAILLGMLDPAEKDEKGMPVTARVVFVFGPDKKLKLSILYPATTGRNFDEILRVVISLQLTAEKRVATPVDWKDGDSVMVLPTIPEEEAKKLFPKGVFTKELPSGKKYLRYTPQP
For B5, the binding [4] was “binds”.
